This is one part of the list. Shown are side measurements of this screen, not its main read-out; they come without a call. Compounds called inactive in the main read-out are mostly missing here. The note in brackets gives the kind of curve behind each potency; many fits are weak.
Assay: qHTS Assay for Lipid Storage Modulators in Drosophila S3 Cells;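 for cell number change: cells counted by Cell Tracker Red CMTPX staining in the red channel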
Conditions: BODIPY lipid droplet fluorescence, 18-24 h; for cell number change: measured here: cell count max response, cells fed with added oleic acid
Procedure, shortened: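 Drosophila S3 cells got compounds at several concentrations plus oleic acid (400 uM solution). Laser-scanning cytometry with 488 nm excitation read lipid droplets at 500-530 nm and cells at 575-640 nm. Percent activity was relative to 20 uM Triacsin C.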

[1] = measured here: lipid fluorescence (Fed channel) AC50, cells fed with added oleic acid
[2] = measured here: cell number channel AC50, cells fed with added oleic acid

Row | Structure (SMILES) | cell number change [%] | AC50 [1] | AC50 [2]
1 | O=C(CCNS(=O)(=O)c1ccc(Cl)cc1)NCc1cccnc1 | -29.8 | 29.1 µM [falling, single point] | –
2 | CCC(C(=O)Nc1ccccc1C(=O)N1CCCC1)N1C(=O)c2ccccc2C1=O (centres undefined) | 0.951 | – | –
3 | CSCCC(N=C1NS(=O)(=O)c2ccccc21)C(=O)N1CCCC(C(N)=O)C1 (centres undefined) | -39.8 | – | 29.1 µM [falling, single point]
4 | O=C(c1cc2ccccc2oc1=O)N1CCCC1 | 17 | 2.91 µM [rising, single point] | –
5 | Cc1c(C)c2ccc(O[C@@H]3O[C@H](CO)[C@H](O)[C@H](O)[C@H]3O)c(C)c2oc1=O | -21.1 | – | 0.231 µM [falling, full curve, poor fit]
6 | Cc1cccc2c1-c1sc(C(=O)Nc3ccccc3N3CCN(C)CC3)cc1CO2 | 3.8 | 1.03 µM [rising, full curve] | 0.517 µM [rising, partial curve]
7 | O=c1oc2ccccc2cc1-c1csc(Nc2nc3ccc(F)cc3s2)n1 | -12.6 | 11.6 µM [rising, partial curve, poor fit] | –
8 | CCOc1ccc(S(=O)(=O)N/N=C(\C)c2ccc(Cl)c(Cl)c2Cl)cc1 | -56.9 | 29.1 µM [falling, single point] | 29.1 µM [falling, single point]
9 | O=C(CN1CCc2ccccc2C1)Nc1ccccc1C(=O)NC1CC1 | 16 | 0.82 µM [falling, full curve, poor fit] | –
10 | O=C(O)CCCn1cc(NC(=O)COc2ccc(F)cc2)cn1 | -12.4 | – | –
11 | CCOc1ccc(C(=O)NC(=S)Nc2ccc(NC(=O)CC)cc2)cc1[N+](=O)[O-] | 19.7 | 2.91 µM [rising, full curve] | –
12 | CCCCn1c(N)c(N(CCOC)C(=O)c2c(C)noc2C)c(=O)[nH]c1=O | 10.5 | – | –
13 | O=C(COc1ccc(Cl)cc1)Nc1cccc(-c2ccc3nncn3n2)c1 | -14.1 | 0.116 µM [falling, full curve, poor fit] | 0.116 µM [falling, full curve, poor fit]
14 | Cc1ccc2nc(N(CCCN(C)C)C(=O)c3cc4ccccc4oc3=O)sc2c1 | -12.4 | 29.1 µM [rising, partial curve] | –
15 | CC1CCN(C(=O)CSc2n[nH]c(-c3cccs3)n2)CC1 | -33.1 | 20 µM [falling, single point] | 20 µM [falling, single point]
16 | COc1cc(/C=N/NC(=O)c2ccc(CN3C(=O)c4cccc5cccc3c45)cc2)cc(OC)c1O | – | 1.84 µM [falling, full curve] | –
17 | CCOc1cc(/C=N/O)ccc1OCc1ccc(C)cc1 | -19.7 | 32.6 µM [falling, single point] | –
18 | CC(C)CN(C(=O)CC(C)c1ccccc1)c1c(N)n(Cc2ccccc2)c(=O)[nH]c1=O (centres undefined) | -11.2 | 29.1 µM [rising, single point] | –
19 | COc1ccc(S(=O)(=O)N2CCCC2C(=O)Nc2nccs2)cc1 (centres undefined) | 6.82 | – | 0.411 µM [falling, single point]

Some of the entries so far, as a markdown table.

| Row | Structure (SMILES) | cell number change [%] | AC50 [1] | AC50 [2] |
| --- | --- | --- | --- | --- |
| 15 | CC1CCN(C(=O)CSc2n[nH]c(-c3cccs3)n2)CC1 | -33.1 | 20 µM [falling, single point] | 20 µM [falling, single point] |
| 16 | COc1cc(/C=N/NC(=O)c2ccc(CN3C(=O)c4cccc5cccc3c45)cc2)cc(OC)c1O | – | 1.84 µM [falling, full curve] | – |
| 17 | CCOc1cc(/C=N/O)ccc1OCc1ccc(C)cc1 | -19.7 | 32.6 µM [falling, single point] | – |

Continued.

Row | Structure (SMILES) | cell number change [%] | AC50 [1] | AC50 [2]
20 | Cc1cc(NC(=O)CCCSc2nc(-c3ccco3)cc(C(F)(F)F)n2)no1 | 1.49 | 1.16 µM [falling, single point] | –
21 | CC(C)CCNC(=O)C(c1ccco1)N(CCCO)C(=O)Cn1nnc(-c2ccc(F)cc2)n1 (centres undefined) | 7.72 | 5.8 µM [rising, partial curve] | –
22 | O=C(CCSc1ccccc1)OCn1nnc2ccccc2c1=O | -6.27 | – | –
23 | CCOC(=O)c1c(N)sc2c(OCC)c(Br)ccc12 | -53.3 | 29.1 µM [falling, single point] | 23.1 µM [falling, single point]
24 | O=C(N/N=C/c1ccc(N2CCCC2)c([N+](=O)[O-])c1)c1cccnc1 | 20.1 | 5.62 µM [rising, partial curve, poor fit] | –
25 | CC(=O)N1c2ccc(S(=O)(=O)N3CCCC(C(=O)Nc4cc(C)cc(C)c4)C3)cc2CC1C (centres undefined) | 8.98 | 0.731 µM [falling, single point] | –
26 | Cc1cccc(N2CC(C(=O)Nc3ccc(S(=O)(=O)NCC4CCCO4)cc3)CC2=O)c1C (centres undefined) | 13.7 | 0.82 µM [rising, full curve] | –
27 | O=C(CCN1C(=O)/C(=C\c2ccc(F)cc2)SC1=S)Nc1ccc(O)cc1 | -0.538 | 6.51 µM [rising, single point] | –
28 | CN(CC(=O)Nc1cccc(S(=O)(=O)N2CCCCC2)c1)Cc1ccc(F)cc1 | -11.7 | 3.66 µM [falling, single point] | –
29 | COc1ccccc1N1CCN(C(=O)CSc2nc(C)cc(=O)[nH]2)CC1 | 28.2 | 6.51 µM [falling, single point] | –
30 | Brc1ccc(-c2csc(NNC3=NCCCCC3)n2)cc1 | – | 25.9 µM [falling, partial curve, poor fit] | –
31 | Cc1ccccc1NC(=O)Cc1nc(COC(=O)c2cc([N+](=O)[O-])ccc2NCCO)cs1 | 55.8 | 2.31 µM [rising, partial curve, poor fit] | 5.8 µM [rising, partial curve, poor fit]
32 | CCN1CCN(C(=O)c2cc(S(=O)(=O)N3CCCCC3)ccc2Cl)CC1 | 16.5 | – | –
33 | CCCn1nc(-c2ccccc2)c2nc3ccccc3nc21 | 13.1 | 0.411 µM [rising, full curve, poor fit] | –
34 | COc1ccc(N2CCN(C(=O)C(=O)c3cn(CC(=O)N4CCCCCC4)c4ccccc34)CC2)cc1 | 17.3 | – | –
35 | O=C(CSc1ncccn1)NCc1ccc2c(c1)OCO2 | -3.81 | – | –
36 | CCn1c(SCc2ccc(C(=O)OC)o2)nc2sc3c(c2c1=O)CCCC3 | 10.6 | 2.31 µM [rising, single point] | –
37 | Cc1ccc(-c2nc3sc4c(c3c(=O)n2N)CC(C)(C)OC4)cc1 | 12 | 2.06 µM [falling, partial curve] | –
38 | Cc1ccc(NC(=O)CCCN2C(=O)NC(C)(C)C2=O)cc1 | 12.1 | 3.66 µM [falling, single point] | 3.66 µM [falling, single point]

Source: PubChem BioAssay AID2685 (National Center for Advancing Translational Sciences (NCATS), 2010)
